Test results reported in article PMC7956269.
No constants are given. Whether binding was seen depends on the method and setting. Binding seen in cells or lysates may run through a third protein. Here binding means that the protein was enriched with, or labelled near, the bait; the list need not be complete.

B1: Prdm10 (protein, UniProt Q9NQV6 1-1147)
chain: MDSKDESSHVWPTSAEHEQNAAQVHFVPDTGTVAQIVYTDDQVRPPQQVVYTADGASYTSVDGPEHTLVYIHPVEAAQTLFTDPGQVAYVQQDATAQQASLPVHNQVLPSIESVDGSDPLATLQTPLGRLEAKEEEDEDEDEDTEEDEEEDGEDTDLDDWEPDPPRPFDPHDLWCEECNNAHASVCPKHGPLHPIPNRPVLTRARASLPLVLYIDRFLGGVFSKRRIPKRTQFGPVEGPLVRGSELKDCYIHLKVSLDKGDRKERDLHEDLWFELSDETLCNWMMFVRPAQNHLEQNLVAYQYGHHVYYTTIKNVEPKQELKVWYAASYAEFVNQKIHDISEEERKVLREQEKNWPCYECNRRFISSEQLQQHLNSHDEKLDVFSRTRGRGRGRGKRRFGPGRRPGRPPKFIRLEITSENGEKSDDGTQDLLHFPTKEQFDEAEPATLNGLDQPEQTTIPIPQLPQETQSSLEHEPETHTLHLQPQHEESVVPTQSTLTADDMRRAKRIRLELQNAALQHLFIRKSFRPFKCLQCGKAFREKDKLDQHLRFHGREGNCPLTCDLCNKGFISSTSLESHMKLHSDQKTYSCIFCPESFDRLDLLKDHVAIHINDGYFTCPTCKKRFPDFIQVKKHVRSFHSEKIYQCTECDKAFCRPDKLRLHMLRHSDRKDFLCSTCGKQFKRKDKLREHMQRMHNPEREAKKADRISRSKTFKPRITSTDYDSFTFKCRLCMMGFRRRGMLVNHLSKRHPDMKIEEVPELTLPIIKPNRDYFCQYCDKVYKSASKRKAHILKNHPGAELPPSIRKLRPAGPGEPDPMLSTHTQLTGTIATPPVCCPHCSKQYSSKTKMVQHIRKKHPEFAQLSNTIHTPLTTAVISATPAVLTTDSATGETVVTTDLLTQAMTELSQTLTTDYRTPQGDYQRIQYIPVSQSASGLQQPQHIQLQVVQVASATSPHQSQQSTVDVGQLHDPQPYPQHAIQVQHIQVSGQPLSPSAQQAQQGLSPSHIQGSSSTQGQALQQQQQQQQNSSVQHTYLPSAWNSFRGYSSEIQMMTLPPGQFVITDSGVATPVTTGQVKAVTSGHYVLSESQSELEEKQTSALSGGVQVEPPAHSDSLDPQTNSQQQTTQYIITTTTNGNGSSEVHITKP
B2: Nob1 (protein, UniProt Q9ULX3 1-412)
chain: MAPVEHVVADAGAFLRHAALQDIGKNIYTIREVVTEIRDKATRRRLAVLPYELRFKEPLPEYVRLVTEFSKKTGDYPSLSATDIQVLALTYQLEAEFVGVSHLKQEPQKVKVSSSIQHPETPLHISGFHLPYKPKPPQETEKGHSACEPENLEFSSFMFWRNPLPNIDHELQELLIDRGEDVPSEEEEEEENGFEDRKDDSDDDGGGWITPSNIKQIQQELEQCDVPEDVRVGCLTTDFAMQNVLLQMGLHVLAVNGMLIREARSYILRCHGCFKTTSDMSRVFCSHCGNKTLKKVSVTVSDDGTLHMHFSRNPKVLNPRGLRYSLPTPKGGKYAINPHLTEDQRFPQLRLSQKARQKTNVFAPDYIAGVSPFVENDISSRSATLQVRDSTLGAGRRRLNPNASRKKFVKKR
B3: Pip (protein, UniProt P12273 29-146)
chain: QDNTRKIIIKNFDIPKSVRPNDEVTAVLAVQTELKECMVVKTYLISSIPLQGAFNYKYTACLCDDNPKTFYWDFYTNRTVQIAAVVDVIRELGICPDDAAVIPIKNNRFYTIEILKVE
B4: Wdr6 (protein, UniProt Q9NNW5 1-1121)
chain: MDALEDYVWPRATSELILLPVTGLECVGDRLLAGEGPDVLVYSLDFGGHLRMIKRVQNLLGHYLIHGFRVRPEPNGDLDLEAMVAVFGSKGLRVVKISWGQGHFWELWRSGLWNMSDWIWDARWLEGNIALALGHNSVVLYDPVVGCILQEVPCTDRCTLSSACLIGDAWKELTIVAGAVSNQLLVWYPATALADNKPVAPDRRISGHVGIIFSMSYLESKGLLATASEDRSVRIWKVGDLRVPGGRVQNIGHCFGHSARVWQVKLLENYLISAGEDCVCLVWSHEGEILQAFRGHQGRGIRAIAAHERQAWVITGGDDSGIRLWHLVGRGYRGLGVSALCFKSRSRPGTLKAVTLAGSWRLLAVTDTGALYLYDVEVKCWEQLLEDKHFQSYCLLEAAPGPEGFGLCAMANGEGRVKVVPINTPTAAVDQTLFPGKVHSLSWALRGYEELLLLASGPGGVVACLEISAAPSGKAIFVKERCRYLLPPSKQRWHTCSAFLPPGDFLVCGDRRGSVLLFPSRPGLLKDPGVGGKARAGAGAPVVGSGSSGGGNAFTGLGPVSTLPSLHGKQGVTSVTCHGGYVYTTGRDGAYYQLFVRDGQLQPVLRQKSCRGMNWLAGLRIVPDGSMVILGFHANEFVVWNPRSHEKLHIVNCGGGHRSWAFSDTEAAMAFAYLKDGDVMLYRALGGCTRPHVILREGLHGREITCVKRVGTITLGPEYGVPSFMQPDDLEPGSEGPDLTDIVITCSEDTTVCVLALPTTTGSAHALTAVCNHISSVRAVAVWGIGTPGGPQDPQPGLTAHVVSAGGRAEMHCFSIMVTPDPSTPSRLACHVMHLSSHRLDEYWDRQRNRHRMVKVDPETRYMSLAVCELDQPGLGPLVAAACSDGAVRLFLLQDSGRILQLLAETFHHKRCVLKVHSFTHEAPNQRRRLLLCSAATDGSLAFWDLTTMLDHDSTVLEPPVDPGLPYRLGTPSLTLQAHSCGINSLHTLPTREGHHLVASGSEDGSLHVFVLAVEMLQLEEAVGEAGLVPQLRVLEEYSVPCAHAAHVTGLKILSPSIMVSASIDQRLTFWRLGHGEPTFMNSTVFHVPDVADMDCWPVSPEFGHRCALGGQGLEVYNWYD
B5: Knop1 (protein, UniProt Q1ED39 1-458)
chain: MITKTHKVDLGLPEKKKKKKVVKEPETRYSVLNNDDYFADVSPLRATSPSKSVAHGQAPEMPLVKKKKKKKKGVSTLCEEHVEPETTLPARRTEKSPSLRKQVFGHLEFLSGEKKNKKSPLAMSHASGVKTSPDPRQGEEETRVGKKLKKHKKEKKGAQDPTAFSVQDPWFCEAREARDVGDTCSVGKKDEEQAALGQKRKRKSPREHNGKVKKKKKIHQEGDALPGHSKPSRSMESSPRKGSKKKPVKVEAPEYIPISDDPKASAKKKMKSKKKVEQPVIEEPALKRKKKKKRKESGVAGDPWKEETDTDLEVVLEKKGNMDEAHIDQVRRKALQEEIDRESGKTEASETRKWTGTQFGQWDTAGFENEDQKLKFLRLMGGFKNLSPSFSRPASTIARPNMALGKKAADSLQQNLQRDYDRAMSWKYSRGAGLGFSTAPNKIFYIDRNASKSVKLED
B6: Swt1 (protein, UniProt Q5T5J6 1-900)
chain: MSSKESCGKKETSQRKDTTTSSPNFGEKDKKERKTPASSTSSSSIRSVSSEKRKLKSDHTDVLYYNIKRRQGLKRLSVEIDTLRRRPKIGSSSQRPIKLKEASYSNDNQIILQSPSSNGTKKDIHKCVDFKPKDIKLTNAGSKLDHGIKSLSSPKIASDVKPKAEGQASENKWSHLLVQREKMKELKKGRNSKFRDNSEKCVLEKWKRNQFSQDYNSNKIIKEPLGSRRQKISFKIPIKSRDTLQKLVEENVFNIDSNNSKTKQEEREYLESSQVSLNVTRQKTEHLLSDFTYKRTVHEWKRKHHYDHQESNDSHSRENLTQSFEAPCCSVSSESIQDADQEMQIVEELHAARVGKSVDLPGELMSMEIDLEDDVHSSSANNTSDRKLLIVIDTNILMNHLKFVRILKTTEVPGFDKLVLIIPWVVMQELDRMKEGKLLKRAQHKAIPAVHFINDSLKNQDRKLWGQSIQLASQKHYGLSDENNDDRVLKCCLQHQELFPCSFVILCTDDRNLRNKGLISGVKSLSKEELSAELLHLSLNTDVCHQPCIPKQQLKAETTPLKESYKEESTNSGLSILLESIVSDLEKSLGTGLSSILETEMKIAFGNLWMEILYLKPPWTLLHLLQCFKKHWLAVFGLVMEKNLLLTIESLYKNLRKANKAVDFTTVKFLLQDSRSLLHAFSTRSNYDGILPQTFAQVNNLLQTFAEVKTKLKPNSSENTVTKKQEGTSLKNSHNQEITVFSSSHLPQPSRHQEIWSILESVWITIYQNSTDVFQRLGSNSALTTSNIASFEEAFICLQKLMAAVRDILEGIQRILAPNSNYQDVETLYNFLIKYEVNKNVKFTAQEIYDCVSQTEYREKLTIGCRQLVEMEYTMQQCNASVYMEAKNRGWCEDMLNYRI
B7: Sbno1 (protein, UniProt A3KN83 1-1393)
chain: MVEPGQDLLLAALSESGISPNDLFDIDGGDAGLATPMPTPSVQQSVPLSALELGLETEAAVPVKQEPETVPTPALLNVRQQPPSTTTFVLNQINHLPPLGSTIVMTKTPPVTTNRQTITLTKFIQTTASTRPSVSAPTVRNAMTSAPSKDQVQLKDLLKNNSLNELMKLKPPANIAQPVATAATDVSNGTVKKESSNKEGARMWINDMKMRSFSPTMKVPVVKEDDEPEEEDEEEMGHAETYAEYMPIKLKIGLRHPDAVVETSSLSSVTPPDVWYKTSISEETIDNGWLSALQLEAITYAAQQHETFLPNGDRAGFLIGDGAGVGKGRTIAGIIYENYLLSRKRALWFSVSNDLKYDAERDLRDIGAKNILVHSLNKFKYGKISSKHNGSVKKGVIFATYSSLIGESQSGGKYKTRLKQLLHWCGDDFDGVIVFDECHKAKNLCPVGSSKPTKTGLAVLELQNKLPKARVVYASATGASEPRNMAYMNRLGIWGEGTPFREFSDFIQAVERRGVGAMEIVAMDMKLRGMYIARQLSFTGVTFKIEEVLLSQSYVKMYNKAVKLWVIARERFQQAADLIDAEQRMKKSMWGQFWSAHQRFFKYLCIASKVKRVVQLAREEIKNGKCVVIGLQSTGEARTLEALEEGGGELNDFVSTAKGVLQSLIEKHFPAPDRKKLYSLLGIDLTAPSNNSSPRDSPCKENKIKKRKGEEITREAKKARKVGGLTGSSSDDSGSESDASDNEESDYESSKNMSSGDDDDFNPFLDESNEDDENDPWLIRKDHKKNKEKKKKKSIDPDSIQSALLASGLGSKRPSFSSTPVISPAPNSTPANSNTNSNSSLITSQDAVERAQQMKKDLLDKLEKLAEDLPPNTLDELIDELGGPENVAEMTGRKGRVVSNDDGSISYESRSELDVPVEILNITEKQRFMDGDKNIAIISEAASSGISLQADRRAKNQRRRVHMTLELPWSADRAIQQFGRTHRSNQVTAPEYVFLISELAGEQRFASIVAKRLESLGALTHGDRRATESRDLSRFNFDNKYGRNALEIVMKSIVNLDSPMVSPPPDYPGEFFKDVRQGLIGVGLINVEDRSGILTLDKDYNNIGKFLNRILGMEVHQQNALFQYFADTLTAVVQNAKKNGRYDMGILDLGSGDEKVRKSDVKKFLTPGYSTSGHVELYTISVERGMSWEEATKIWAELTGPDDGFYLSLQIRNNKKTAILVKEVNPKKKLFLVYRPNTGKQLKLEIYADLKKKYKKVVSDDALMHWLDQYNSSADTCTHAYWRGNCKKASLGLVCEIGLRCRTYYVLCGSVLSVWTKVEGVLASVSGTNVKMQIVRLRTEDGQRIVGLIIPANCVSPLVNLLSTSDQSQQLAVQQKQLWQQHHPQSITNLSNA

Molecular target: Biotin-FOXC1 (mouse) (UniProt Q61572)
Experiment: affinity purification with mass spectrometry; streptavidin-agarose precipitation of biotinylated FOXC1 from nuclear extract of stable HEK293T cells (293T-Biotin-FOXC1); IP350 buffer (350 mM NaCl, 20 mM Tris-HCl pH 7.5, 0.5% NP40, 1 mM EDTA, 10% glycerin); SDS-PAGE, LC-ESI-MS/MS; proteins of the 293T-Biotin control deducted

binding, binds:
B1, B2, B3, B4, B5, B6, B7
